Measured values as given in patent US6664372B1 (The Scripps Research Institute, priority 1996, dated 2003).

Assay: general procedure: solution-phase peptide synthesis; MeO-PEG soluble polymer support (polyethylene glycol monomethyl ether); pentafluorophenyl carbamates of Boc-alkylhydrazines, DMAP

Row | Substance | crude yield (whole synthesis, from 13, scale 38.0 μmol, trifluoroacetate) | step yield (late stage modification step, from 15, trifluoroacetate) | isolated yield (whole synthesis, overall from 13, scale of the general procedure 38.0 μmol, trifluoroacetate)
1 | (O-Benzyl)Tyr^a-Gly^a-Gly^a-Phe^a-Leu^a-Boc | 62.4% |  | 
2 | Tyr^a-Gly^a-Gly^a-Phe^a-Leu^a-Boc |  | 90.7% | 56.7%
